Laboratory results published in patent US20250163119A1 (Eli Lilly and Company, priority 2023, published 2025).

Assay: general procedure: Fmoc solid-phase peptide synthesis; Rink Amide MBHA LL; diisopropylcarbodiimide (DIC) / Oxyma
Details: whole synthesis, analytical RP-HPLC (Waters Acuity CSH C18), scale 0.13 mmol, TFA salt

Substance: Ac-GSPSIVTS αMeL DVPT Aib αMeL LQKILEQERAEKARQQAKEAAEILAQV-NH2
- final HPLC purity: >92.0%
